These are yes or no findings as the source states them, for the method shown. Some binding calls cover weakened binding; strength is not graded here.
Tests used:
[1] = biological target: T1, soluble HEK (sHEK), complete extracellular domain (exodomain) of HEK encoded by exons I-VII (human) (UniProt P29320); assay: BIAcore, LERK-Fc over HEK-derivatised sensor chip
T1 sequence (looked up): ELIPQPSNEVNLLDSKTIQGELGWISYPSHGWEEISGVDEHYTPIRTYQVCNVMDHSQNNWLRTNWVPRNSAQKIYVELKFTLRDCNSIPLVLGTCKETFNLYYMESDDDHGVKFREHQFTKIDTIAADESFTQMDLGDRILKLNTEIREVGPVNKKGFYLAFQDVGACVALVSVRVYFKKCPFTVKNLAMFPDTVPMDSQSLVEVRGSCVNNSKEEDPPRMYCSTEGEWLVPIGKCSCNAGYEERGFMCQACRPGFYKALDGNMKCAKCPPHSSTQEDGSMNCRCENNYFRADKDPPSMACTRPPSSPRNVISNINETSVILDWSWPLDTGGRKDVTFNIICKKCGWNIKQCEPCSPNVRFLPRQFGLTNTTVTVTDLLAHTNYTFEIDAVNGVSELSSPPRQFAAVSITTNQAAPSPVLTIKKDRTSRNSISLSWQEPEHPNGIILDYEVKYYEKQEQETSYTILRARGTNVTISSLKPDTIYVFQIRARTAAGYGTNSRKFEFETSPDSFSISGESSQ

Amino acid sequences for entries named in this document (tags omitted). Residues count along the entry.
UniProt P20827, residues 19-182: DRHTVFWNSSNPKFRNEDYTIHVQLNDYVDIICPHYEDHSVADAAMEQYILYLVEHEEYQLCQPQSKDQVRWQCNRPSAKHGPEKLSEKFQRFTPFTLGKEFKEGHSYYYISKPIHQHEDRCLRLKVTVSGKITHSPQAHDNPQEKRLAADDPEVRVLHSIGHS
UniProt P52799, residues 28-229: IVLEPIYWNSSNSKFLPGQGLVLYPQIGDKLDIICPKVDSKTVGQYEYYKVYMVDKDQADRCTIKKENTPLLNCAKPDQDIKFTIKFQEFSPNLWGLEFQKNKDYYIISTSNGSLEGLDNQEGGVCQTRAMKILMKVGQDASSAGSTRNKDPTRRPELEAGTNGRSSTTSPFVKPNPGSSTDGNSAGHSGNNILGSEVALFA

[2] = biological target: T1, soluble HEK (sHEK), complete extracellular domain (exodomain) of HEK encoded by exons I-VII (human); assay: BIAcore, LERK-Fc fusion over sensor chip-immobilised HEK exodomain
[3] = biological target: T1, soluble HEK (sHEK), complete extracellular domain (exodomain) of HEK encoded by exons I-VII (human); assay: BIAcore, LERK-Fc fusion at 10 µg/ml over sensor chip-immobilised HEK exodomain
[4] = biological target: T1, soluble HEK (sHEK), complete extracellular domain (exodomain) of HEK encoded by exons I-VII (human); assay: BIAcore; Fc fusion protein at 10 µg/ml (50 µl) on an sHEK-derivatised sensor chip; response 20 s after the end of the injection

binding [1]	binding [2]	binding [3]	binding [4]	Substance
binds	binds	binds	binds	LERK 1-Fc fusion protein (from UniProt P20827 19-182)
binds	binds	–	binds	LERK 5-Fc fusion protein (from UniProt P52799 28-229)
